These are yes or no findings as the source states them, for the method shown. In cells and extracts the contact can be indirect. Some binding calls cover weakened binding; strength is not graded here.
Target: T1, TBC1D8 (mouse (endogenous in mouse spleen)) (UniProt Q9Z1A9)
T1 sequence: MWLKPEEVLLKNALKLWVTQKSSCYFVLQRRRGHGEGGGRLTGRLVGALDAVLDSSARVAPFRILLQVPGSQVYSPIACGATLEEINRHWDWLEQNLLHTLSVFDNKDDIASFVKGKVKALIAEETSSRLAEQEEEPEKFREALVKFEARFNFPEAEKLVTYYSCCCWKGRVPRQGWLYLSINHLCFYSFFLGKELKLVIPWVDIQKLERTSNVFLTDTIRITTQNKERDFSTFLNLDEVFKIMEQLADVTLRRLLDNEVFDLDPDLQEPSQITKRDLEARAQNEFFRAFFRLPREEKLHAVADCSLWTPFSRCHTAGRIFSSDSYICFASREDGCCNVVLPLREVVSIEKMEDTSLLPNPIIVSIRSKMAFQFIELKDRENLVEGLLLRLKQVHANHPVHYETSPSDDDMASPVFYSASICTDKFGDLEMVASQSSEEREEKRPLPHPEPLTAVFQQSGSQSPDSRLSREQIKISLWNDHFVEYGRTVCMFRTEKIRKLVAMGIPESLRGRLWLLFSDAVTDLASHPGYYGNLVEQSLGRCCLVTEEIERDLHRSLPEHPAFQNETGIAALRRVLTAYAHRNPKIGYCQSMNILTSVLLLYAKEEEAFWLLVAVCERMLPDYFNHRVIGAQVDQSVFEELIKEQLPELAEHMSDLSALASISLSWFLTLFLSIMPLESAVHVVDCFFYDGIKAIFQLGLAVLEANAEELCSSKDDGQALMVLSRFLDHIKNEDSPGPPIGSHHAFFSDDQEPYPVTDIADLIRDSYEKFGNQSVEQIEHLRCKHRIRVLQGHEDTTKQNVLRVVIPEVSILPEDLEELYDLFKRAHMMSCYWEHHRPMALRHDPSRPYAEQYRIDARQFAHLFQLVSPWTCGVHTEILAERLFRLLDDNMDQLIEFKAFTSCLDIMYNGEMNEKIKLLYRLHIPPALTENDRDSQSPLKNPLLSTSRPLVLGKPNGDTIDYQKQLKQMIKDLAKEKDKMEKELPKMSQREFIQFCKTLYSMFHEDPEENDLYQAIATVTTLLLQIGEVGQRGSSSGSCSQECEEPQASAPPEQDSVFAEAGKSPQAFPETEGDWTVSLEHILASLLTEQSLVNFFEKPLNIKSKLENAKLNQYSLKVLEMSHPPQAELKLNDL
Test: co-IP

Chains of the proteins cited; added tags and fusions are not shown.
UniProt P55258: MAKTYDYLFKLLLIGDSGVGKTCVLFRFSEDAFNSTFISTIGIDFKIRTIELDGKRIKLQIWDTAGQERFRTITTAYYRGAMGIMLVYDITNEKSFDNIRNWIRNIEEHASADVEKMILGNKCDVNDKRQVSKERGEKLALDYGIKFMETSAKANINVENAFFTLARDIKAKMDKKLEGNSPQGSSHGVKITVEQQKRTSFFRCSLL

binding: binds
Substance: RAB8A (from UniProt P55258 1-207)
